Results published in the supplement of paper PMC3334620.
Over roughly 33,000 sequences, “E-score (-0.5 to 0.5)” has its median near -0.0059; the highest 2% begin near 0.26. The list shows a part of the results.

molecular target: T1, Cin5 (UniProt P40917); assay: PBM E-score (8-mer binding enrichment) (E-score (-0.5 to 0.5)); higher = stronger / more preferred TF binding; settings: protein concentration: 100 nM; construct: GST-full length
T1 sequence: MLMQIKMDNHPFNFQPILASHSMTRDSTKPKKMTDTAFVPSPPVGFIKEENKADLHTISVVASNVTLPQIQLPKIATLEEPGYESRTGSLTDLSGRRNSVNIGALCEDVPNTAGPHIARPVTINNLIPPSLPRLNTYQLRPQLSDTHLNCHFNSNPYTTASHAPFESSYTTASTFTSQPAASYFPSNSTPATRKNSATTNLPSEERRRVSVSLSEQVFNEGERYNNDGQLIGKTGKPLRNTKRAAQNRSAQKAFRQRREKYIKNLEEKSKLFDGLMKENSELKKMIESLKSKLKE
Procedure, shortened: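 Universal all-10-mer Agilent arrays, double-stranded by primer extension on fresh or once-stripped slides, were probed with about 100-200 nM GST-tagged yeast transcription factors made by PURExpress. Fluorescent anti-GST detected bound protein, and masliner normalised the scans. E-scores from the Universal PBM Analysis Suite were given to each ungapped eight-base word pooled with its reverse complement.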

Sequence	PBM E-score
ATGCTGGA	-0.0155
GCAGCGGA	0.142
AAGTGACA	0.156
GCACTCGC	-0.105
ACTTTTTC	-0.0317
CAGCCTCA	-0.115
AAAATAGC	-0.0291
AGTAACTG	0.0066
ACGGACAA	0.22
AGCAAACT	0.107
CGTGTTGC	-0.119
CGATCGCG	0.156
CGGTTCTC	-0.217
CCGCTACG	-0.274
ACCTGTTG	-0.0113
GAGGCACC	-0.259
CAAGGGGC	-0.0283
AAGACGCG	-0.0284
ACACAATG	0.159
ACATCCGA	-0.0426
TAATGACA	0.237
CACTTATC	0.0905
ACTGGTAG	-0.045
CAATTTAA	0.159
CTGGGCAA	-0.00747

Sequence	PBM E-score
ACGACTTC	-0.12
GGCGTACA	-0.182
ATATTCAC	0.196
CCACGTCC	-0.185
TCAGTTAA	0.0587
ACTGCATG	0.0819
TTCAAAAA	0.0429
TAAGCTTA	0.372
CCATCTGA	-0.0639
CAAGCAAA	0.0691
CACACATC	-0.103
GTCGGACA	-0.0736
TGGAGACA	-0.0161
AGGATATA	0.152
GCTTTAGA	-0.15
CCAGTGTA	0.119
ACAGCATG	-0.0234
AATAGCCT	-0.0259
GGCGACCA	-0.255
GTAGAACA	-0.165
GGCTGTTA	-0.0126
AACTAATT	0.181
CGTCGTTA	-0.102
GCTTTCTA	0.164
CACACAAG	0.0852

A few values from the results shown:
PBM E-score with AAGACGCG is entered as -0.0284
PBM E-score with CGTCGTTA is entered as -0.102
PBM E-score with GGCGACCA is entered as -0.255
PBM E-score with AAAATAGC is entered as -0.0291

Following part.

Sequence	PBM E-score
CAATGTTA	0.0439
CGGGACAC	-0.0433
AAAACTGG	-0.043
ACCTCGCC	-0.179
ACAGCACT	-0.0028
CGAAGCAC	0.0504
TATACATA	0.236
ATGGTGAC	-0.147
AGGGACTA	0.0328
CAGAACTC	0.0143
AATGATGG	0.228
AATTCCCG	0.0857
CAAGAATG	0.011
GATAACAC	0.165
AGGTATCC	0.0225
ACATACAC	0.118
GGAGGAAA	-0.107
GTGCTGCA	-0.0502
GCGTGCGA	-0.0562
GCTGACGA	0.181
CCCGGAGA	0.0171
CGTGAAAA	0.145
ATCAGGGC	-0.118
CTTCATCA	0.0543
CGATAGGC	-0.026

Sequence	PBM E-score
CACAAGGA	-0.0252
AATTGCGG	-0.0237
GTTCGAGA	-0.00774
ATAAAGCC	-0.084
ACTGGGGG	-0.425
AACTTCCT	0.0558
CAGTAGAA	0.0667
CGGGTGAC	-0.0551
GCGACGCC	-0.0013
AGAATATG	0.231
GCCGTCAC	0.0366
CTATTCTA	0.155
CGTTTACC	0.226
GATCCAAC	-0.0889
CTTACAAC	0.136
CTGAGCAG	-0.0991
AACGCCGC	0.137
CCCTATAG	-0.00306
GTAGTAAC	0.0222
ACAGAAAA	0.158
AGATCATA	0.186
CCGCAAGA	0.0476
AATATAGA	0.186
AAACTCCT	-0.177
AGGTGCAC	0.00232

Sequence	PBM E-score
AAGTTTAT	0.178
GCATAGCA	-0.0462
GACCTTGC	-0.25
GGGGTCTA	-0.0419
GTATCCCA	0.0573
ATTCGCAA	0.171
AAAGGCAA	0.134
CACTACTA	0.14
CACCCATG	-0.0397
GTAAAGAA	0.0223
CGAATGAC	0.275
AAGAAGGC	-0.0773
CGTAGCTC	0.0879
CATTTAAG	0.0446
CACTCTAA	0.00766
GACGCCTC	-0.0208
GGGAATTA	0.135
ACCGTTAC	-0.0809
GCAGTTAC	0.139
CATTATAG	0.185
GTTACAGA	-0.00519
ATCTCTCG	-0.027
CCCACGCC	-0.267
ATACGAAT	0.0148
TCGATTCA	0.108

A stretch of the results above, as a working copy:
Sequence	PBM E-score
CATTTAAG	0.0446
CACTCTAA	0.00766

Further results.

Sequence	PBM E-score
CCTCATCA	0.106
ATGACTTC	0.0774
ACTTTCCT	0.119
CGCAAGCC	0.0497
GACGGCAA	-0.0246
CATTTGGC	-0.0189
GTGACTTA	0.0722
ACGCCTGA	-0.0546
AAGGTAAG	0.113
TATGCGCA	0.0647
ACGCGACC	-0.0572
CAATCGCG	0.0471
GGCAGGGA	-0.0516
TCATGGCA	-0.0173
CGTCGAGC	-0.0762
TAACCCAA	0.0919
CCCAATTC	0.231
AGTAAGGA	0.0657
AGTAGTAC	0.225
CAATAAGC	0.0492
ATATGAGC	0.0395
GGCATACC	-0.0672
AAGGTTAT	0.00317
CAAAGCTG	0.0494
AACCGAGT	-0.135

Sequence	PBM E-score
AACTGTTA	0.209
CCTGCGTA	-0.115
GGCAAAGA	0.0547
ACACGTCG	-0.319
AATGGTTC	0.02
GAGTGGCC	-0.18
AGTGCGTG	-0.0238
ATGAGACA	0.163
GACCGAAC	-0.0429
GCATCGCC	-0.144
ATAGATAC	0.224
GTACACGA	0.14
CCGTATGA	0.0393
TTACTGAA	0.092
AGCAGTCC	-0.143
CGCGCTGA	0.104
GACATTCA	-0.0105
CTAAGACA	0.0386
GACAAATC	0.16
AGGCCCTG	-0.258
GAAAAAAA	0.204
CCGGTTTC	0.0044
